These are yes or no findings as the source states them, for the method shown. Binding seen in cells or lysates may run through a third protein. Some results given as binding are weak or reduced against the parent protein; the word gives no strength. Sequences can lack the tags named with a protein.
T1: Rqh1 (RecQ DNA helicase), myc tagged (S. pombe) (UniProt Q09811)
T1 sequence: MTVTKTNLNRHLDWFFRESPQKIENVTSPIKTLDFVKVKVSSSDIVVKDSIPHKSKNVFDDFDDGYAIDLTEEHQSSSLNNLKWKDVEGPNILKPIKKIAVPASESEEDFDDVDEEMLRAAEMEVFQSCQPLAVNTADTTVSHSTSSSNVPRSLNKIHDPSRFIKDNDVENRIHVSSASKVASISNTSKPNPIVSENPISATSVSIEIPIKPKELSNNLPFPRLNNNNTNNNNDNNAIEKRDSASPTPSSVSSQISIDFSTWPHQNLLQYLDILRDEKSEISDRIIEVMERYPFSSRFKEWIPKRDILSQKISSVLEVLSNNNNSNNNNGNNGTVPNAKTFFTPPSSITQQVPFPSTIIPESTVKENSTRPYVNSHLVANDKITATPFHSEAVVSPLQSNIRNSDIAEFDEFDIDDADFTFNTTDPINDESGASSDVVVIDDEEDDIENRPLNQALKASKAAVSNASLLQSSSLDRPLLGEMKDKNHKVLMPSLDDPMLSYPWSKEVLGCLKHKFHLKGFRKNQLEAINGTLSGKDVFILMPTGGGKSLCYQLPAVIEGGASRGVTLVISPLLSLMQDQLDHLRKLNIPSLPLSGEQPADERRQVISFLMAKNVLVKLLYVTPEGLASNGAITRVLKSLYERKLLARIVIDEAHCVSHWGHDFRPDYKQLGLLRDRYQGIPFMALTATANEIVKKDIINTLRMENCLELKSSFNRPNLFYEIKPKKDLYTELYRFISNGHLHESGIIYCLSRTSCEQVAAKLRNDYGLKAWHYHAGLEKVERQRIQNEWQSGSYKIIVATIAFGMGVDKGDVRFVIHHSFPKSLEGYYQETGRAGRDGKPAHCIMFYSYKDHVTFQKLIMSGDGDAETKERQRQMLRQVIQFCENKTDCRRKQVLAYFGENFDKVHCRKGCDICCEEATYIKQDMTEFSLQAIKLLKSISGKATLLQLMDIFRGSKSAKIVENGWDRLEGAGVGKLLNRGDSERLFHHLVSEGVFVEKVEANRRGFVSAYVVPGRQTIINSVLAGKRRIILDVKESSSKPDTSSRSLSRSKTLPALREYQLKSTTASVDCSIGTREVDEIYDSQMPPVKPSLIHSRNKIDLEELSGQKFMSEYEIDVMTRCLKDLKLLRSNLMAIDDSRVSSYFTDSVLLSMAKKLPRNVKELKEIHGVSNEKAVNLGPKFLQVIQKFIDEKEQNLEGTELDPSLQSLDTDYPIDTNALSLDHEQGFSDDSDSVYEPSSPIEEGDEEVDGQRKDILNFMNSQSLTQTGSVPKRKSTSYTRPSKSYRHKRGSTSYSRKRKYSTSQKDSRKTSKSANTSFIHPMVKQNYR

Sequences of proteins named here, by UniProt entry; tags and fusion partners are left off.
UniProt Q9P7T4: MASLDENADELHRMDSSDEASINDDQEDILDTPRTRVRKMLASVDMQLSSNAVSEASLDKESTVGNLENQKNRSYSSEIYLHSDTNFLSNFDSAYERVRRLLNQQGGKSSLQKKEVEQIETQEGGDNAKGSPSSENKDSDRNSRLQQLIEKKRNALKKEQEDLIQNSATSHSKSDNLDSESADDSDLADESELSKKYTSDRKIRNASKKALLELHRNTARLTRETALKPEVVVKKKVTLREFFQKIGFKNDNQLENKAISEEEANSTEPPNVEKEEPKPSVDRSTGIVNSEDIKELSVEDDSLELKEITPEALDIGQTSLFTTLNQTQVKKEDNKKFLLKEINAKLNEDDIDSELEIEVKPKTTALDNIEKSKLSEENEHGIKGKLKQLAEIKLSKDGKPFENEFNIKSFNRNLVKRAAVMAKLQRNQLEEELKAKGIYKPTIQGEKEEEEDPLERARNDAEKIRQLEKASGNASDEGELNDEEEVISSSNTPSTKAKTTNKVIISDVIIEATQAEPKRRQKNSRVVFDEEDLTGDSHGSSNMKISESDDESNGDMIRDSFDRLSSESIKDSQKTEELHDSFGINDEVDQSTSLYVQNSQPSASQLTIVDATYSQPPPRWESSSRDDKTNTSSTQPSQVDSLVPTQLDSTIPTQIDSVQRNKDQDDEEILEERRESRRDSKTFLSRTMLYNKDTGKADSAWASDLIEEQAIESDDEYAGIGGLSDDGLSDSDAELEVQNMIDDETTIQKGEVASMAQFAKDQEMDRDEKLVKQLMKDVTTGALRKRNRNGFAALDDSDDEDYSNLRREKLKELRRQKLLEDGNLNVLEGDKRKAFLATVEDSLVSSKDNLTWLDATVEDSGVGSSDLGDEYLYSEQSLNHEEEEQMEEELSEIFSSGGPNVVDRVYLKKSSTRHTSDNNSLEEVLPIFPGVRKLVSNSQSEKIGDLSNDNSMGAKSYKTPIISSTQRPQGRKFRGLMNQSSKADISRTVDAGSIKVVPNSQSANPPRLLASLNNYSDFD

T2: Rpa1, HA tagged (S. pombe) (UniProt Q92372)
T2 sequence: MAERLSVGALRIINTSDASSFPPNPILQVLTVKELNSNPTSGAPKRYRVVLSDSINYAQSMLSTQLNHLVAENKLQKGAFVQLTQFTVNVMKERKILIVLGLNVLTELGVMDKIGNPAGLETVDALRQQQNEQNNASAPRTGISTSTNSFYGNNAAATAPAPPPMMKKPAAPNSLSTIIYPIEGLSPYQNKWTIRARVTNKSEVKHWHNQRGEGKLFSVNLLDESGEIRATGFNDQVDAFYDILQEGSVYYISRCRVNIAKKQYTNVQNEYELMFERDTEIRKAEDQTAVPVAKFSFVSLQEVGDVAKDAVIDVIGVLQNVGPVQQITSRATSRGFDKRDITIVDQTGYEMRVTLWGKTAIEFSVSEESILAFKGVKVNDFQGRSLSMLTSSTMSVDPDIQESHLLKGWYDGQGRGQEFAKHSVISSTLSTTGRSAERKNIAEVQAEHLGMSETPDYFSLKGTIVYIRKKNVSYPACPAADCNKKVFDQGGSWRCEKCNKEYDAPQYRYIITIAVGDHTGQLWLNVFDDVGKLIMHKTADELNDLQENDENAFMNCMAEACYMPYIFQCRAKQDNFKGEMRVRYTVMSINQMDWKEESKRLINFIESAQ

B1: Rpa1, HA tagged (protein, UniProt Q92372 1-609)
chain: T2 sequence
B2: Rqh1 (RecQ DNA helicase), myc tagged (enzyme, UniProt Q09811 1-1328)
chain: T1 sequence
B3: Cds1 (enzyme, UniProt Q09170 1-460)
chain: MEEPEEATQATQEAPLHVSQNIAKQVVNNENVFMKLVMTRMLDGKTEVIPLTTDVHNGFWRFGRHKSCEVVLNGPRVSNFHFEIYQGHRNDSDESENVVFLHDHSSNGTFLNFERLAKNSRTILSNGDEIRIGLGVPKDEISFLCQVPVKHSRDSQKNMIKSENSHYEIIRTLGSGTFAVVKLAVEVNSGKWYAIKIINKRKILLTSSEKRATEMFQREIDILKSLHHPGVVQCHEIFENDDELFIVMEYVEGGDLMDFLIANGSIDEQDCKPLLKQLLETLLHLHKQGVTHRDIKPENILITNDFHLKISDFGLAKVIHGTGTFLETFCGTMGYLAPEVLKSKNVNLDGGYDDKVDIWSLGCVLYVMLTASIPFASSSQAKCIELISKGAYPIEPLLENEISEEGIDLINRMLEINPEKRISESEALQHPWFYTVSTHEHRTPPSSSEHEATEQLNSSS

Experiments:
Assay in all cases: co-IP
[1] = target: T1, Rqh1 (RecQ DNA helicase), myc tagged (S. pombe)
[2] = target: Mrc1, HA tagged (S. pombe) (UniProt Q9P7T4)
[3] = target: T2, Rpa1, HA tagged (S. pombe)

Molecule	binding [1]	binding [2]	binding [3]
Mrc1, HA tagged (from UniProt Q9P7T4 1-1019)	binds	–	–
B1	binds	–	–
B2	–	binds	binds
B3	no binding	–	–
